Laboratory results: doi:10.1101/2023.08.17.553727
No constants are given. Whether binding was seen depends on the method and setting. For some assays here: Binding seen in cells or lysates may run through a third protein. Some results given as binding are weak or reduced against the parent protein; the word gives no strength. Sequences can lack the tags named with a protein. Blank lines part the entries; values can stand above or below the binder they belong to.

The chains behind the UniProt entries cited, without tags or fusion partners.
UniProt Q9XGR4: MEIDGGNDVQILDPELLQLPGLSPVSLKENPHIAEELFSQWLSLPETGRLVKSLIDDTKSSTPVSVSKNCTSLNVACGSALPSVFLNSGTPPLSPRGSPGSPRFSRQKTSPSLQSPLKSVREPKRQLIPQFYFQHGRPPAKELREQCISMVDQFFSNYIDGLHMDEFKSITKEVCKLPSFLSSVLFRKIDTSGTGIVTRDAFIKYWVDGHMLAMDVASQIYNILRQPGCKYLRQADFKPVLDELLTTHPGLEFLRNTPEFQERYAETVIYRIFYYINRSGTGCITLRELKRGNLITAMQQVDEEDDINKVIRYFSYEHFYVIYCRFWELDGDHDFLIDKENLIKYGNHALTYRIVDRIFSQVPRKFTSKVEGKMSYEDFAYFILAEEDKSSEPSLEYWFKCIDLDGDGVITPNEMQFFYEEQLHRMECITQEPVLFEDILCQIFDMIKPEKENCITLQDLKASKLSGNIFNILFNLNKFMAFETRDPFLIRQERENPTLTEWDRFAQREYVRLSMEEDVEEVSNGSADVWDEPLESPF
UniProt Q5QIT3: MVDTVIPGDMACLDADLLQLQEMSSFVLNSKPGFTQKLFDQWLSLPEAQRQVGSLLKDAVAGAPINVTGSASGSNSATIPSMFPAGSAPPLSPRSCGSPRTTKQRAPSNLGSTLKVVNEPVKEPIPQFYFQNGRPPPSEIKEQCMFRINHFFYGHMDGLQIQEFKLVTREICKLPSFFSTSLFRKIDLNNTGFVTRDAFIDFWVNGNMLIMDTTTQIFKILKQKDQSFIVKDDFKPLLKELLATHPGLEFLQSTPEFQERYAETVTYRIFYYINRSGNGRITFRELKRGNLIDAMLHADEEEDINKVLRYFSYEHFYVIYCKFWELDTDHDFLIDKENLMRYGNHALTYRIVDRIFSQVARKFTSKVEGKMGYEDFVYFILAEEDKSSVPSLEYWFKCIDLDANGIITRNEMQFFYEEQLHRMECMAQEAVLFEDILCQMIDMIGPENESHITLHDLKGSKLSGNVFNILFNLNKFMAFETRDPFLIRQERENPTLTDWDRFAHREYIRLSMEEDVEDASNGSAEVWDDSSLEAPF

Tests used:
[1] = molecular target: B’’α-GAL4-DNA binding domain fusion (Arabidopsis thaliana) (UniProt Q9XGR4); experiment: two-hybrid
[2] = molecular target: B’’β-GAL4-DNA binding domain fusion (Arabidopsis thaliana) (UniProt Q5QIT3); experiment: two-hybrid
[3] = molecular target: MBP-B’’α (Arabidopsis thaliana) (UniProt Q9XGR4); experiment: pull-down
[4] = molecular target: MBP-B’’β (Arabidopsis thaliana) (UniProt Q5QIT3); experiment: pull-down

binding [1]: binds
binding [2]: binds
B3: GAL4-activation domain fused to full-length PIF1 (protein, UniProt Q8GZM7 1-478)
chain: MHHFVPDFDTDDDYVNNHNSSLNHLPRKSITTMGEDDDLMELLWQNGQVVVQNQRLHTKKPSSSPPKLLPSMDPQQQPSSDQNLFIQEDEMTSWLHYPLRDDDFCSDLLFSAAPTATATATVSQVTAARPPVSSTNESRPPVRNFMNFSRLRGDFNNGRGGESGPLLSKAVVRESTQVSPSATPSAAASESGLTRRTDGTDSSAVAGGGAYNRKGKAVAMTAPAIEITGTSSSVVSKSEIEPEKTNVDDRKRKEREATTTDETESRSEETKQARVSTTSTKRSRAAEVHNLSERKRRDRINERMKALQELIPRCNKSDKASMLDEAIEYMKSLQLQIQMMSMGCGMMPMMYPGMQQYMPHMAMGMGMNQPIPPPSFMPFPNMLAAQRPLPTQTHMAGSGPQYPVHASDPSRVFVPNQQYDPTSGQPQYPAGYTDPYQQFRGLHPTQPPQFQNQATSYPSSSRVSSSKESEDHGNHTTG

binding [3]: binds
binding [4]: binds
B4: TAP-PIF1 (protein, UniProt Q8GZM7 1-478)
chain: B3 chain

The remaining lines, values behind:

B1: GAL4-activation domain fused to full-length PIF5 (protein, UniProt Q84LH8 1-444)
chain: MEQVFADWNFEDNFHMSTNKRSIRPEDELVELLWRDGQVVLQSQARREPSVQVQTHKQETLRKPNNIFLDNQETVQKPNYAALDDQETVSWIQYPPDDVIDPFESEFSSHFFSSIDHLGGPEKPRTIEETVKHEAQAMAPPKFRSSVITVGPSHCGSNQSTNIHQATTLPVSMSDRSKNVEERLDTSSGGSSGCSYGRNNKETVSGTSVTIDRKRKHVMDADQESVSQSDIGLTSTDDQTMGNKSSQRSGSTRRSRAAEVHNLSERRRRDRINERMKALQELIPHCSRTDKASILDEAIDYLKSLQMQLQVMWMGSGMAAAAAAAASPMMFPGVQSSPYINQMAMQSQMQLSQFPVMNRSAPQNHPGLVCQNPVQLQLQAQNQILSEQLARYMGGIPQMPPAGNQMQTVQQQPADMLGFGSPAGPQSQLSAPATTDSLHMGKIG
binding [1]: binds
binding [2]: binds

B2: PIF5-MYC (protein, UniProt Q84LH8 1-444)
chain: B1 chain
binding [3]: binds
binding [4]: binds
